Experimental data: patent US20260250338A1
No constants are given. Whether binding was seen depends on the method and setting. Some entries that bind do so weakly or less than the wild type.

The chains behind the UniProt entries cited, without tags or fusion partners. Residues count along the entry.
UniProt P08637, residues 17-208: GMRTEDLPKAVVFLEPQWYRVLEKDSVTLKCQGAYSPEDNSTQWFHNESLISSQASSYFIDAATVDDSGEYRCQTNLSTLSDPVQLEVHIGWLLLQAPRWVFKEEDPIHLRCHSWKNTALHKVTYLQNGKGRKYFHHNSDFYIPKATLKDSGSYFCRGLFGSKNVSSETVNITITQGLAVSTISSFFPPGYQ

How the values were obtained:
[1] = molecular target: human CD16a (hCD16a), biotinylated recombinant extracellular domain used in the crude extract HTRF screen (CD16aV and/or CD16aF) (human) (UniProt P08637); assay: crude cell extract HTRF, 4 nM biotinylated target, anti-strep-Tb donor and anti-Flag-D2 acceptor
[2] = molecular target: human CD16a (hCD16a), biotinylated recombinant extracellular domain used in the crude extract HTRF screen (CD16aV and/or CD16aF) (human) (UniProt P08637); assay: crude extract HTRF on recombinant CD16a target

| Binder | binding [1] | binding [2] |
| --- | --- | --- |
| DARPin #1 (SEQ ID NO: 1), clone as screened in crude extract HTRF (designed binder) DLGKKLLQAARAGQLDEVRELLKAGADVNAKDWSGFTPLHIAAVQGHLEIVEVLLKAGADVNAKDHSGWTPLHVAAFSGHLEIVEVLLKAGADVNAKDATGQTPLHLAARTGHLEIVEVLLKAGADVNAQDKSGKTPADLAARAGHQDIAEVLQKAA | binds | binds |
| DARPin #4 (SEQ ID NO: 4), clone as screened in crude extract HTRF (designed binder) DLGEKLLLAAALGQDDEVRELLKAGADVNAKDVQGSTPLHLAAVEGHLEIVEVLLKAGADVNAKDQWGQTPLHVAAIWGHLEIVEVLLKAGADVNAQDELGKTPADLVALQGHEDIAEVLQKAA | binds | binds |
| DARPin #5 (SEQ ID NO: 5), clone as screened in crude extract HTRF (designed binder) DLGAKLLRAAKKGQDDEVRELLKAGADVNAKDELGFTPLHVAAEEGHLEIVEVLLKAGADVNAKDSWGATPLHVAAWVGHLEIVEVLLKAGADVNAQDQEGQTPADLAAEAGHEDIAEVLQKAA | binds | binds |
| DARPin #6 (SEQ ID NO: 6), clone as screened in crude extract HTRF (designed binder) DLGKKLLEAAEEGQDDEVRELLKAGADVNAKDEWGSTPLHIAAWVGHLEIVEVLLKAGADVNAKDSLGATPLHLAAEAGHLEIVEVLLKAGADVNAQDLKGKTPADLAALEGHEDIAEVLQKAA | binds | binds |
| DARPin #2 (SEQ ID NO: 2), clone as screened in crude extract HTRF (designed binder) DLGQKLLRAAKKGQDDEVRELLKAGADVNAKDEQGWTPLHIAAWKGHLEIVEVLLKAGADVNAKDVFDWTPLHVAAHFGHLEIVEVLLKAGADVNAQDRAGETPADLAAQAGHEDIAEVLQKAA | binds | binds |
| DARPin #3 (SEQ ID NO: 3), clone as screened in crude extract HTRF (designed binder) DLGKKLLQAARAGQLDEVRELLKAGADVNAKDEQGRTPLHIAAASGHLEIVEVLLKAGADVNAKDWFGITPLHIAAWWGHLEIVEVLLKAGADVNAKDQEGRTPLHIAAAIGHLEIVEVLLKAGADVNAQDKSGKTPADLAARAGHQDIAEVLQKAA | binds | binds |
